# PubChem BioAssay AID1259254 | NCATS | 2017
# Screen: 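Genome-wide screen for genes that prevent DNA re-replication in cancer cells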 (primary screen)
# Cells: human HCT116 colorectal cancer cells
# Knock-down reagent: single siRNA against human genes
# Timing: 3 days
# Measured: 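Imaged Hoechst DNA stain sorts each cell into a cycle phase by DNA amount; per plate, G2 fraction set to 0% for non-targeting and 100% for GMNN siRNA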
# Scale: G2 robust z-score: higher = more G2 cells, more excess DNA replication
# Hit rule: 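Active siRNAs have a G2 robust z of 5 or more median absolute deviations over the median, which in these data means about 38% or higher of GMNN control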
# The deposit covers about 59,000 reagents; below is an unselected part. Of all reagents, about 1,550 (2.6%) are marked active. 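G2 share is only a proxy for re-replication; each gene was hit by three separate siRNAs, and active genes were retested.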 Reagents against one gene are numbered here. Further read-outs or replicates are left out here. Not given: the amount of reagent.
Target gene,reagent no.,G2 robust z-score,Outcome
EIF3FP3,1,0.261,inactive
EIF3FP3,2,0.308,inactive
EIF3FP3,3,0.427,inactive
HCAR1,1,4.39,inactive
HCAR1,2,0.0148,inactive
HCAR1,3,0.586,inactive
ADGRL2,1,0.0842,inactive
ADGRL2,2,-1.15,inactive
ADGRL2,3,-0.533,inactive
RANBP2,1,7.39,active
RANBP2,2,3.36,inactive
RANBP2,3,0.479,inactive
SCAI,1,-0.248,inactive
SCAI,2,0.00316,inactive
SCAI,3,-0.225,inactive
SPAAR,1,-0.586,inactive
SPAAR,2,-0.718,inactive
SPAAR,3,2.14,inactive

In a second layout: 2 of the entries above
{"Target gene":"ADGRL2","reagent no.":2,"G2 robust z-score":-1.15,"Outcome":"inactive"}
{"Target gene":"ADGRL2","reagent no.":3,"G2 robust z-score":-0.533,"Outcome":"inactive"}

Continued:
Target gene,reagent no.,G2 robust z-score,Outcome
CNDP1,1,2.47,inactive
CNDP1,2,-0.475,inactive
CNDP1,3,-0.264,inactive
WASHC5,1,1.47,inactive
WASHC5,2,-0.196,inactive
WASHC5,3,4.36,inactive
TMEM266,1,-0.0975,inactive
TMEM266,2,1.96,inactive
TMEM266,3,-0.629,inactive
ZNF707,1,-1.02,inactive
ZNF707,2,-0.727,inactive
ZNF707,3,-0.185,inactive
